Laboratory results from patent US20040115188A1, “Enzyme with proteolytic activity” (priority 2000, published 2004).
Some of these results come from one statement about several compounds together. Square brackets hold non-standard residues; d marks the D form. Peptide text beside a SMILES is read from it. * marks the point of attachment. Sta = CC(C)C[C@H](N)[C@@H](O)CC(=O)O; Isovaleryl = CC(C)CC(=O)*

Test system: Pra1
Assay: Inhibition of proteolytic activity of Pra1 by specific inhibitors
Format: biochemical, T. harzianum
Settings: 0.1 mM inhibitor, preincubation 30 minutes at 30° C., pH 7.5
Method: In order to determine the catalytic type to which Pra1 belongs, specific inhibitors were used of the different known catalytic mechanisms. The effect of said inhibitors on the activity of Pra1 was analysed by preincubating the enzymatic solution for 30 minutes at 30° C. in 100 mM phosphate buffer pH 7.5 with said specific inhibitors of different known catalytic mechanisms:
1 mM PMSF (100 mM initial solution in isopropanol),
1 mM EDTA (100 mM initial solution in water),
0.1 mM Pepstatin (10 mM initial solution in DMSO),
1 mM Iodoacetamide (100 mM initial solution in water, prepared at the time of use).
In parallel to the enzymatic assay, controls were also performed in the presence of organic solvent in which the inhibitor was dissolved. The residual activity was determined by the percentage of activity in absence of inhibitor.

## CC(C)CC(=O)N[C@H](C(=O)N[C@H](C(=O)N[C@@H](CC(C)C)[C@@H](O)CC(=O)N[C@@H](C)C(=O)N[C@@H](CC(C)C)[C@@H](O)CC(=O)O)C(C)C)C(C)C [pepstatin] (Isovaleryl-VV[Sta]A[Sta]-OH)
  residual activity of Pra1: more than 90%
